Experimental data: the supplement of paper PMC6411743
± gives the standard deviation of the averaged measurements. The list shows a part of the results.

Sequences of proteins named here, by UniProt entry; tags and fusion partners are left off. A change or cut given only in a name is not applied to a line headed by its entry.
UniProt P25786: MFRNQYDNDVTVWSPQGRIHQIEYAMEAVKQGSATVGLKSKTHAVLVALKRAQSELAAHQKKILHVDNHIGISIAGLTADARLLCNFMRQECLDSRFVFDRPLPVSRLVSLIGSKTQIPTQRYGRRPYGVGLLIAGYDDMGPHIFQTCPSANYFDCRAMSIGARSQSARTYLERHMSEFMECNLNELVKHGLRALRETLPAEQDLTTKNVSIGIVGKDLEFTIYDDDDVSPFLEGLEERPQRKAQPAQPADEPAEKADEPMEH
UniProt P07741: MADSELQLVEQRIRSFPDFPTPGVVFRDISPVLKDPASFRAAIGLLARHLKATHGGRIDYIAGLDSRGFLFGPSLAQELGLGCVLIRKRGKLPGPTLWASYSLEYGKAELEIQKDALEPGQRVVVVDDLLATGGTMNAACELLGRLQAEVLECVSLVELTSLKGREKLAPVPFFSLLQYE
UniProt P10599: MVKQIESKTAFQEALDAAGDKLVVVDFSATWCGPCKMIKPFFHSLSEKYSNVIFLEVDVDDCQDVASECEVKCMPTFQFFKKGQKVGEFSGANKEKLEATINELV
UniProt P08754, whole entry: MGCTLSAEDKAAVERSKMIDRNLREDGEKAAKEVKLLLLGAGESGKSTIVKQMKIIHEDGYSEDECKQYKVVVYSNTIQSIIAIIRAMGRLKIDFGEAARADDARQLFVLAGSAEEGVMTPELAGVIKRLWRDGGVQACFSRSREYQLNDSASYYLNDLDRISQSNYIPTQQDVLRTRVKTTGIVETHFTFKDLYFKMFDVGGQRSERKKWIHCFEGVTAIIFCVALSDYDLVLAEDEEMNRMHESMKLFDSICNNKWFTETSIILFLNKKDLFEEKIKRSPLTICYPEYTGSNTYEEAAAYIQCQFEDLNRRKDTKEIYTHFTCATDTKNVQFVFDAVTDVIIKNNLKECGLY
UniProt P13804: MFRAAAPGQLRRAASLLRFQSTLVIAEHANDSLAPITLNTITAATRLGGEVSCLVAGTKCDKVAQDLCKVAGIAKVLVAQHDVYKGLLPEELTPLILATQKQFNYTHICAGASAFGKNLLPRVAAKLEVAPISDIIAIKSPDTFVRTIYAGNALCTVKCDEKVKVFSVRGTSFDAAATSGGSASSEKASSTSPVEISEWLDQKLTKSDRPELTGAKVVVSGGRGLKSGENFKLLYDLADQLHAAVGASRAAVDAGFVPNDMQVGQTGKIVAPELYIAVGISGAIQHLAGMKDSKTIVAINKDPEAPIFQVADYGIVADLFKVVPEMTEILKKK
UniProt P16402, whole entry: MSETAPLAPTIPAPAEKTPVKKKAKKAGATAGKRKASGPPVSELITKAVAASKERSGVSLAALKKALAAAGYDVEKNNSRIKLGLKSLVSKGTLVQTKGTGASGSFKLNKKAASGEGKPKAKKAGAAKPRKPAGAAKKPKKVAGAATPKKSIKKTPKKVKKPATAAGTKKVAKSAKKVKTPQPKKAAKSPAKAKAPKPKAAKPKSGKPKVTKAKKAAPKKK
UniProt P08134, whole entry: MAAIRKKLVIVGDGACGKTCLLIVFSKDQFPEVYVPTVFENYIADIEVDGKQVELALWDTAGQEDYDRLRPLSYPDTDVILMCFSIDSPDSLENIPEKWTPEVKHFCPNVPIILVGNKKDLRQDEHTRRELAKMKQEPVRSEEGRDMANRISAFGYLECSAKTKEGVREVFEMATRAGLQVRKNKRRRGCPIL
UniProt P07902: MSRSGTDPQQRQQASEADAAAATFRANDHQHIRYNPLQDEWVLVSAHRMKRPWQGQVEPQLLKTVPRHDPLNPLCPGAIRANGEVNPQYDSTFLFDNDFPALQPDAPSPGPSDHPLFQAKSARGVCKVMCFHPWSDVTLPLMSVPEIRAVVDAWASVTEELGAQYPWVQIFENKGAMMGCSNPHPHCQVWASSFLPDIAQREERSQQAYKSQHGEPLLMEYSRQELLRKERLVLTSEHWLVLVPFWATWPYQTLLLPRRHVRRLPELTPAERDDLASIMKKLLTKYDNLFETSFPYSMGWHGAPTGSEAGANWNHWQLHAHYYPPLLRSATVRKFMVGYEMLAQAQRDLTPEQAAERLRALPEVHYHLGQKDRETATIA
UniProt P26038, whole entry: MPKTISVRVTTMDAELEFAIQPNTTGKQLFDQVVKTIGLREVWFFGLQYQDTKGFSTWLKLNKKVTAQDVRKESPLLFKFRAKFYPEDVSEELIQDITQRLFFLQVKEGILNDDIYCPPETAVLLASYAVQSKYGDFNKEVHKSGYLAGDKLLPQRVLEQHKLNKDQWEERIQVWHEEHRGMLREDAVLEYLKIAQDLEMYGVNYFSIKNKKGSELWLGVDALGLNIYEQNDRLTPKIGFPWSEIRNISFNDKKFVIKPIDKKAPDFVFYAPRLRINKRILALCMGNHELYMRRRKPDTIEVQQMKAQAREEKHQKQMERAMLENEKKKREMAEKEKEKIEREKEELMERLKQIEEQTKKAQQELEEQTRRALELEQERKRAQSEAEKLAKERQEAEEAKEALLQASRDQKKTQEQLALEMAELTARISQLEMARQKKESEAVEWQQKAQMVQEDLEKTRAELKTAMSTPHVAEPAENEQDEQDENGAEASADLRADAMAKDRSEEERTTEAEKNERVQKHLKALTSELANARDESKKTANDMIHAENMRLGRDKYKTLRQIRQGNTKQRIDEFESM
UniProt P16949: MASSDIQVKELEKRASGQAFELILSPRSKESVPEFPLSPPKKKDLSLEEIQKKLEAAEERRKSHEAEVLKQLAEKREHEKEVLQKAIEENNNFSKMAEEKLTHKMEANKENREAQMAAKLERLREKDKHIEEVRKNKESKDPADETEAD
UniProt P18583: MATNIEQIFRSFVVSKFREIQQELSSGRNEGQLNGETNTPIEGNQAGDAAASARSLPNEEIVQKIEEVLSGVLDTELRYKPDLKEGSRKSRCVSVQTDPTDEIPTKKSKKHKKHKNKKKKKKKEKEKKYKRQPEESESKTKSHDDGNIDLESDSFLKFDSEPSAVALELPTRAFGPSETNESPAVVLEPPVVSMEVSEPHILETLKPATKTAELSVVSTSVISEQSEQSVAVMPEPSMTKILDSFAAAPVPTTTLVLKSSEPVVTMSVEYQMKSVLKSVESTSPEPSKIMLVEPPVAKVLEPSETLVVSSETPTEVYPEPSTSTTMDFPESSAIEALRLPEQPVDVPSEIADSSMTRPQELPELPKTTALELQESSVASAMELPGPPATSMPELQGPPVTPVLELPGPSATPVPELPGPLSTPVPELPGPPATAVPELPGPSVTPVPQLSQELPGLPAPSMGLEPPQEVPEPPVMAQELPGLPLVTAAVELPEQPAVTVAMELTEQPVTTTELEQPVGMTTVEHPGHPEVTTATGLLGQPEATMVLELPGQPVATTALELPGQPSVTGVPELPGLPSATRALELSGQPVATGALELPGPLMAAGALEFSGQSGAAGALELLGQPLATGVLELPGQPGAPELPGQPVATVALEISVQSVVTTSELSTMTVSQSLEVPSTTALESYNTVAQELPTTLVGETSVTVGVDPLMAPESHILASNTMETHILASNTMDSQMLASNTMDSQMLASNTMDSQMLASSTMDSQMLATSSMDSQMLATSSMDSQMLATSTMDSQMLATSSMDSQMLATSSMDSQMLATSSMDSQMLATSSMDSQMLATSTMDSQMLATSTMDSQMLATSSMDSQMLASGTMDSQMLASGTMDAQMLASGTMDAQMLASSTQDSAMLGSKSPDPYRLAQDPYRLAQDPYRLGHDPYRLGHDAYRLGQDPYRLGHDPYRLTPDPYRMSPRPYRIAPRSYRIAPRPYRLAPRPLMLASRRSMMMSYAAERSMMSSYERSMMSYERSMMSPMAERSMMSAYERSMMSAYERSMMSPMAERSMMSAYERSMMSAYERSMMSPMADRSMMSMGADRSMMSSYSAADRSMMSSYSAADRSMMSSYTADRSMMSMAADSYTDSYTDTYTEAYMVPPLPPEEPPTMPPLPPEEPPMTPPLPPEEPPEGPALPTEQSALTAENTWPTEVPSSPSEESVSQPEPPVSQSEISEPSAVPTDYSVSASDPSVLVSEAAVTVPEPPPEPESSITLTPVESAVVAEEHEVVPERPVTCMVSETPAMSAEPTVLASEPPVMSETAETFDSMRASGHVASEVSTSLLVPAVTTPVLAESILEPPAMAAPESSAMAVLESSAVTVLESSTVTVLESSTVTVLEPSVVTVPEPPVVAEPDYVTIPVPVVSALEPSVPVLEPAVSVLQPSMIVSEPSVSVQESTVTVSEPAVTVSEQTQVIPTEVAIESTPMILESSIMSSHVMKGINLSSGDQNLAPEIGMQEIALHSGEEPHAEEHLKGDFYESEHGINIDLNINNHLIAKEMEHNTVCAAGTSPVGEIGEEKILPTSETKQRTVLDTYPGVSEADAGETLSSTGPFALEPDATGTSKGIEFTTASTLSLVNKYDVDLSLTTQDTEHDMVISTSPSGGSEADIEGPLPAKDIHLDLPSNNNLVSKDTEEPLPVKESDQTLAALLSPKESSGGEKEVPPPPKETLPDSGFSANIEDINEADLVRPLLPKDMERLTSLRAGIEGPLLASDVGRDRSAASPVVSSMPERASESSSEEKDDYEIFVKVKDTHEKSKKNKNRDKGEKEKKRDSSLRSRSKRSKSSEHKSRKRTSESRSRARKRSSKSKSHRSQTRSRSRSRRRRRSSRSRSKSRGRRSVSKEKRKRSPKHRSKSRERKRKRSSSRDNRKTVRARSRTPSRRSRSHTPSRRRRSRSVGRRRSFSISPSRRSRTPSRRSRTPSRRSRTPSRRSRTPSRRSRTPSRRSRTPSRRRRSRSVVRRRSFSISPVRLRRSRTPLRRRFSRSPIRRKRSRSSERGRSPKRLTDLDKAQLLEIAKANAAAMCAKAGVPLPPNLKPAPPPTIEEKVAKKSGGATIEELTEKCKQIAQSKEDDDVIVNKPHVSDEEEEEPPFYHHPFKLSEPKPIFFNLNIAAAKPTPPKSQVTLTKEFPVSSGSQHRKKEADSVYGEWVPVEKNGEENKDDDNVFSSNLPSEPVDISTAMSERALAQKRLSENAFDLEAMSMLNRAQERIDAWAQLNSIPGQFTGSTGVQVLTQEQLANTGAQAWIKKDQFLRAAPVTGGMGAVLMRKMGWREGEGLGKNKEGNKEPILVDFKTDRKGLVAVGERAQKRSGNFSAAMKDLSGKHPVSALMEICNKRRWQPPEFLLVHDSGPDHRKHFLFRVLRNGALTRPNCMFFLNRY
UniProt P0CG13, whole entry: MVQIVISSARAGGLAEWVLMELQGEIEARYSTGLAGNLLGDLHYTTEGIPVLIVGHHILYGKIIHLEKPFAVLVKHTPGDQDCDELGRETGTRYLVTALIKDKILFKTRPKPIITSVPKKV
UniProt P22033: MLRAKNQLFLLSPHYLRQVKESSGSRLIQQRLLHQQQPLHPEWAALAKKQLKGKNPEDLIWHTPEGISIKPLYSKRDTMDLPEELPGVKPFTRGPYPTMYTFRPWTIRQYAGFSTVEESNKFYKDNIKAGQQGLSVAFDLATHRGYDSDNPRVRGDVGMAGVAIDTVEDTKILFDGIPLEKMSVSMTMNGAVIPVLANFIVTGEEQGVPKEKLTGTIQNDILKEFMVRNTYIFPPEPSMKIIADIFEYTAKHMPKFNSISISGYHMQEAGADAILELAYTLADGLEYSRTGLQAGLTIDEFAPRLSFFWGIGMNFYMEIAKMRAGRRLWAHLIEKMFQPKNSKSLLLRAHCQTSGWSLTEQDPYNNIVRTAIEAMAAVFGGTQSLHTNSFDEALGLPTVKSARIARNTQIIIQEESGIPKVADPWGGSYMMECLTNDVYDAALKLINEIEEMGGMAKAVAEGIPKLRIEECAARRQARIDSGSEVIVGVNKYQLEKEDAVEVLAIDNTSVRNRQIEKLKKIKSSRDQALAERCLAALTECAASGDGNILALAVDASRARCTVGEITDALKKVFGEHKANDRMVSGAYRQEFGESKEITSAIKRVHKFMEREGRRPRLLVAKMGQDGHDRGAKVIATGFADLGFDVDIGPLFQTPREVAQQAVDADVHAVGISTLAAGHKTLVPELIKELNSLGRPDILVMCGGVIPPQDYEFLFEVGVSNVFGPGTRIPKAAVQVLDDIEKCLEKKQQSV
UniProt P23919: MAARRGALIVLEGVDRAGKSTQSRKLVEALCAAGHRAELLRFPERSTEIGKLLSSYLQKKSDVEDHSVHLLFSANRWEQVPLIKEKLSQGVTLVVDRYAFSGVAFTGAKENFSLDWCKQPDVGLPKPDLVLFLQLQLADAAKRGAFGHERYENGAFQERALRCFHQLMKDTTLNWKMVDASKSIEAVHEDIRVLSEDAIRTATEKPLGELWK
UniProt P14927: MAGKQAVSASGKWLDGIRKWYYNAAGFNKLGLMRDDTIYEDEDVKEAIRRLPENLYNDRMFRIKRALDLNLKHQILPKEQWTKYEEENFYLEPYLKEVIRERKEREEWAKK
UniProt P10412, whole entry: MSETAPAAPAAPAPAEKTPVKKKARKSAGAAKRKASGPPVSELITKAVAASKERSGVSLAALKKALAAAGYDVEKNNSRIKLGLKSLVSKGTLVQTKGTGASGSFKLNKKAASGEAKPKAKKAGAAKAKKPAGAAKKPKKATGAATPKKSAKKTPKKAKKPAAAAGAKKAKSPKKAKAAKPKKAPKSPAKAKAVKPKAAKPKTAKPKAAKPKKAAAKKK

Compound: Nc1nc2c(ncn2[C@@H]2O[C@H](COP(=O)(O)OP(=O)(O)OP(=O)(O)O)[C@@H](O)[C@H]2O)c(=O)[nH]1 [guanosine triphosphate]
Experiment: NP40-soluble protein abundance relative to vehicle (solubility fold change) (ratio); higher = more soluble protein in presence of GTP
Summary of the method: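 Jurkat crude lysate (Dounce-homogenised) was treated with eight concentrations from 0.1 to 10 mM for 10 min at room temperature, then 3 min at 37 °C. It was solubilised with 0.8% NP40 and benzonase (60 min, 4 °C) and ultracentrifuged, and the supernatant was TMT-labelled for LC-MS/MS. Intensities were vsn-normalised, and the value is the fold change against the NP40-processed vehicle per replicate, from three independent experiments.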

Target | NP40-soluble protein abundance (concentration: 0.1mM) | NP40-soluble protein abundance (concentration: 0.5mM) | NP40-soluble protein abundance (concentration: 1mM) | NP40-soluble protein abundance (concentration: 2mM) | NP40-soluble protein abundance (concentration: 4mM) | NP40-soluble protein abundance (concentration: 6mM) | NP40-soluble protein abundance (concentration: 8mM) | NP40-soluble protein abundance (concentration: 10mM)
ACO1 (UniProt P21399) | 1.026 ± 0.0069 | 1.01 ± 0.015 | 0.929 ± 0.013 | 0.923 ± 0.02 | 0.928 ± 0.04 | 0.881 ± 0.034 | 0.889 ± 0.046 | 0.855 ± 0.077
UniProt P09497-2 | 1.09 ± 0.093 | 1.05 ± 0.046 | 1.14 ± 0.052 | 1.04 ± 0.075 | 1.06 ± 0.013 | 1.04 ± 0.036 | 1.13 ± 0.076 | 1.09 ± 0.047
UniProt P25786 and related entries | 1.02 ± 0.036 | 1.04 ± 0.085 | 1.07 ± 0.085 | 1.08 ± 0.13 | 1.1 ± 0.14 | 1.11 ± 0.15 | 1.1 ± 0.15 | 1.07 ± 0.16
UniProt P21675 and related entries | 1.09 ± 0.048 | 1.152 ± 0.0092 | 1.2 ± 0.099 | 1.24 ± 0.1 | 1.22 ± 0.12 | 1.21 ± 0.12 | 1.26 ± 0.15 | 1.26 ± 0.13
APRT (UniProt P07741) | 0.949 ± 0.048 | 0.939 ± 0.076 | 0.787 ± 0.047 | 0.831 ± 0.068 | 0.816 ± 0.028 | 0.774 ± 0.042 | 0.681 ± 0.11 | 0.744 ± 0.1
JAK1 (UniProt P23458) | 1.1 ± 0.07 | 1.15 ± 0.078 | 1.14 ± 0.083 | 1.16 ± 0.086 | 1.12 ± 0.1 | 1.14 ± 0.078 | 1.15 ± 0.068 | 1.14 ± 0.044
TXN (UniProt P10599) | 0.954 ± 0.088 | 0.941 ± 0.064 | 0.936 ± 0.1 | 0.863 ± 0.1 | 0.84 ± 0.097 | 0.877 ± 0.11 | 0.865 ± 0.075 | 0.862 ± 0.083
ALDOC (UniProt P09972) | 0.946 ± 0.082 | 0.954 ± 0.073 | 0.973 ± 0.079 | 0.954 ± 0.07 | 0.962 ± 0.061 | 0.936 ± 0.062 | 0.949 ± 0.06 | 0.954 ± 0.067
GNAI3 (UniProt P08754) | 0.993 ± 0.13 | 1.06 ± 0.093 | 0.911 ± 0.071 | 0.946 ± 0.053 | 0.931 ± 0.036 | 0.932 ± 0.027 | 0.813 ± 0.033 | 0.89 ± 0.13
ATP6V1B2 (UniProt P21281) | 1 ± 0.04 | 1.01 ± 0.04 | 1.01 ± 0.056 | 1 ± 0.043 | 1.02 ± 0.035 | 0.995 ± 0.051 | 1 ± 0.057 | 0.983 ± 0.056
ITGA4 (UniProt P13612) | 0.943 ± 0.059 | 0.939 ± 0.059 | 0.943 ± 0.051 | 0.941 ± 0.073 | 0.928 ± 0.073 | 0.933 ± 0.051 | 0.922 ± 0.048 | 0.948 ± 0.1
POLR2E (UniProt P19388) | 1.06 ± 0.11 | 1.09 ± 0.11 | 1.15 ± 0.16 | 1.19 ± 0.18 | 1.22 ± 0.18 | 1.19 ± 0.19 | 1.16 ± 0.16 | 1.11 ± 0.16
ETFA (UniProt P13804) | 0.965 ± 0.026 | 0.949 ± 0.028 | 0.93 ± 0.03 | 0.889 ± 0.038 | 0.886 ± 0.038 | 0.882 ± 0.04 | 0.889 ± 0.027 | 0.87 ± 0.047
PDIA4 (UniProt P13667) | 0.908 ± 0.074 | 0.939 ± 0.065 | 0.905 ± 0.069 | 0.876 ± 0.08 | 0.846 ± 0.079 | 0.885 ± 0.069 | 0.864 ± 0.073 | 0.867 ± 0.081
H1F0 (UniProt P07305) | 0.928 ± 0.093 | 0.872 ± 0.11 | 0.982 ± 0.11 | 1.13 ± 0.23 | 0.956 ± 0.085 | 0.855 ± 0.15 | 0.842 ± 0.25 | 1.21 ± 0.23
HIST1H1D (UniProt P16402) | 0.894 ± 0.042 | 0.924 ± 0.044 | 1.02 ± 0.032 | 1.03 ± 0.038 | 1.15 ± 0.08 | 1.3 ± 0.14 | 1.22 ± 0.034 | 1.68 ± 0.049
UniProt P08134 and related entries | 0.944 ± 0.077 | 1.04 ± 0.1 | 0.924 ± 0.14 | 0.956 ± 0.083 | 0.896 ± 0.11 | 0.93 ± 0.1 | 0.886 ± 0.14 | 0.929 ± 0.12
GALT (UniProt P07902) | 0.957 ± 0.091 | 0.933 ± 0.14 | 0.94 ± 0.081 | 0.927 ± 0.1 | 0.939 ± 0.12 | 0.905 ± 0.12 | 0.925 ± 0.039 | 0.888 ± 0.12
UniProt P26038 and related entries | 0.942 ± 0.058 | 0.964 ± 0.055 | 0.921 ± 0.07 | 0.883 ± 0.084 | 0.851 ± 0.085 | 0.865 ± 0.08 | 0.883 ± 0.071 | 0.866 ± 0.086
STMN1 (UniProt P16949) | 0.911 ± 0.0092 | 0.899 ± 0.048 | 0.994 ± 0.014 | 0.909 ± 0.042 | 0.85 ± 0.069 | 0.935 ± 0.1 | 0.971 ± 0.089 | 0.995 ± 0.041
UniProt P15056 and related entries | 1.03 ± 0.048 | 1.04 ± 0.041 | 1.05 ± 0.04 | 0.995 ± 0.065 | 1 ± 0.077 | 1.01 ± 0.016 | 1.05 ± 0.084 | 1.07 ± 0.049
UniProt P18583 and related entries | 1.05 ± 0.022 | 1.09 ± 0.038 | 1.16 ± 0.057 | 1.21 ± 0.035 | 1.24 ± 0.098 | 1.28 ± 0.073 | 1.31 ± 0.11 | 1.4 ± 0.12
UniProt P08559 and related entries | 1.04 ± 0.11 | 1.09 ± 0.15 | 1.05 ± 0.19 | 1.12 ± 0.22 | 1.17 ± 0.2 | 1.16 ± 0.24 | 1.14 ± 0.21 | 1.06 ± 0.2
P0CG12 and related entries (UniProt P0CG13) | 1.06 ± 0.14 | 0.994 ± 0.082 | 1.02 ± 0.071 | 0.951 ± 0.1 | 0.992 ± 0.1 | 1.02 ± 0.07 | 0.98 ± 0.12 | 1.06 ± 0.094
UniProt P22033 | 1.01 ± 0.036 | 1 ± 0.065 | 0.961 ± 0.031 | 0.93 ± 0.026 | 0.947 ± 0.024 | 0.926 ± 0.031 | 0.91 ± 0.023 | 0.902 ± 0.042
DTYMK (UniProt P23919) | 0.9789 ± 0.008 | 0.961 ± 0.022 | 0.9 ± 0.036 | 0.889 ± 0.01 | 0.865 ± 0.037 | 0.86 ± 0.024 | 0.834 ± 0.057 | 0.817 ± 0.048
UQCRB (UniProt P14927) | 0.986 ± 0.084 | 0.94 ± 0.019 | 1.04 ± 0.08 | 0.994 ± 0.063 | 0.962 ± 0.086 | 0.971 ± 0.038 | 0.99 ± 0.04 | 1.01 ± 0.076
HIST1H1E (UniProt P10412) | 1.02 ± 0.12 | 1.05 ± 0.1 | 1.13 ± 0.15 | 1.24 ± 0.11 | 1.26 ± 0.055 | 1.38 ± 0.064 | 1.28 ± 0.18 | 2.05 ± 0.41

Some entries already given, showing only NP40-soluble protein abundance (concentration: 10mM), NP40-soluble protein abundance (concentration: 1mM) and NP40-soluble protein abundance (concentration: 6mM):
Target | NP40-soluble protein abundance (concentration: 10mM) | NP40-soluble protein abundance (concentration: 1mM) | NP40-soluble protein abundance (concentration: 6mM)
UniProt P15056 and related entries | 1.07 ± 0.049 | 1.05 ± 0.04 | 1.01 ± 0.016
DTYMK (UniProt P23919) | 0.817 ± 0.048 | 0.9 ± 0.036 | 0.86 ± 0.024
